These are yes or no findings as the source states them, for the method shown. Some entries that bind do so weakly or less than the wild type.
Tests used:
Carboxypeptidase R (CPR) [1] = target: T1, Carboxypeptidase R (CPR) (human, UniProt Q96IY4 115-423); experiment: enzyme kinetics
T1 sequence (looked up): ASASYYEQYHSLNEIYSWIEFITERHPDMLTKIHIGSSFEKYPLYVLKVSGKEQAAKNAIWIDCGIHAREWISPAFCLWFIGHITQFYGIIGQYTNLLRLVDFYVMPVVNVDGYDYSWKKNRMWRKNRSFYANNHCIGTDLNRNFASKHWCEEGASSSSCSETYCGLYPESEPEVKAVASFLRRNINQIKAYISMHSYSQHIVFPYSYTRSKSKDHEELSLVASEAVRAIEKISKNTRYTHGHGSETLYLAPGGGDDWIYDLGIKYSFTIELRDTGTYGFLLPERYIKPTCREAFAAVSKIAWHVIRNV

Carboxypeptidase R (CPR) [2] = target: T1, Carboxypeptidase R (CPR); experiment: circular dichroism of the mixture against the arithmetic sum of the single spectra, 4 C

B1: CPI-2KR (linear 9-mer peptide Cys-Lys-Pro-Ala-Lys-Asn-Ala-Arg-Cys) (peptide)
peptide: CKPAKNARC
modifications: C-terminal amide (peptides prepared as amidated peptides)
Carboxypeptidase R (CPR) [1]
  binding: binds
Carboxypeptidase R (CPR) [2]
  binding: binds

Source: patent publication US20050130898A1 (HIDECHIKA OKADA, published 2005)
